Measured values: paper PMC4541365, “Alpha-ring Independent Assembly of the 20S Proteasome” (Scientific Reports, 2015)
Substitutions are numbered along the chain they refer to. Results are given in words; binding and its absence hold for the method and conditions named. Binding can be weak; no strength is given. Tags and fused reporters may be left off the sequences shown. For some assays here: Binding seen in cells or lysates may run through a third protein.

Legend:
[1] = target: T1, M. maripaludis α-his subunit K59E (Methanococcus maripaludis S2) (UniProt Q6M0L9); assay: SEC; lysates with α-his mixed with lysates with untagged full length β; purified by ICAR; purified proteins fractionated by size exclusion chromatography (Sephacryl S-300)
T1 sequence: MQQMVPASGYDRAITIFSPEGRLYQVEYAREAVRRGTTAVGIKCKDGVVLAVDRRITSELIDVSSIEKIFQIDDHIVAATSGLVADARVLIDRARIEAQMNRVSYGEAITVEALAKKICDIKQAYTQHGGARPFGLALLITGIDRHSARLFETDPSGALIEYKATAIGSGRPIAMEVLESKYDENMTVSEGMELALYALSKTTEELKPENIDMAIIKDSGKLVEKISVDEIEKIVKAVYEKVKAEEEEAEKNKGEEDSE

[2] = target: T2, Methanococcus maripaludis S2 20S proteasome α subunit, C-terminally hexahistidine-tagged, wild type (Methanococcus maripaludis S2) (UniProt Q6M0L9); assay: pull-down; lysate mixing: total crude lysates of E. coli separately expressing α-his and untagged β mixed, 37 °C, 30 min; purified by ICAR through α-his; eluate on nondenaturing 5–10% gel, substrate overlay and SDS-PAGE
T2 sequence: T1 sequence with E59K

[3] = target: T3, M. maripaludis α-his subunit R88D (Methanococcus maripaludis S2) (UniProt Q6M0L9); assay: as above
T3 sequence: T1 sequence with E59K, R88D

[4] = target: T1, M. maripaludis α-his subunit K59E (Methanococcus maripaludis S2); assay: as above
[5] = target: T2, Methanococcus maripaludis S2 20S proteasome α subunit, C-terminally hexahistidine-tagged, wild type (Methanococcus maripaludis S2); assay: pull-down; α-his coexpressed with untagged β subunits in E. coli; purified by ICAR through α-his; eluate on nondenaturing 5–10% gel, substrate overlay and SDS-PAGE
[6] = target: T3, M. maripaludis α-his subunit R88D (Methanococcus maripaludis S2); assay: as above
[7] = target: T1, M. maripaludis α-his subunit K59E (Methanococcus maripaludis S2); assay: as above

binding [1]	binding [2]	binding [3]	binding [4]	binding [5]	binding [6]	binding [7]	Substance
binds	–	–	–	–	–	–	M. maripaludis β subunit K29E, untagged (Methanococcus maripaludis S2)
–	binds	binds	binds	binds	binds	binds	M. maripaludis β subunit R166W, untagged (Methanococcus maripaludis S2)
–	–	binds	binds	–	binds	binds	M. maripaludis β subunit T1A, untagged (Methanococcus maripaludis S2)
